Results taken from patent US7238711.
Results are given in words; binding and its absence hold for the method and conditions named.

Target: T1, Duffy Antigen Receptor for Chemokines (DARC) (human) (UniProt Q16570)
T1 sequence (looked up): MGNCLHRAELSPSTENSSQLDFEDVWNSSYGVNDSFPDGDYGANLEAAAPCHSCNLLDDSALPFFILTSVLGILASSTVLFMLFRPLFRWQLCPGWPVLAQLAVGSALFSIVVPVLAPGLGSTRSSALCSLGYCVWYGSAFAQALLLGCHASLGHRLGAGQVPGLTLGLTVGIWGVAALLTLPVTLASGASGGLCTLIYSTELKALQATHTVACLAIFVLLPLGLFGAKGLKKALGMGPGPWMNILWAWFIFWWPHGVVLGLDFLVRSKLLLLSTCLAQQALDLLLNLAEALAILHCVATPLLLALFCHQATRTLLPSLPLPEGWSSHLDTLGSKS
Test: DARC binding, Table 18

CPKEAV
binding: no binding (tested: >100 µM)
